{
  "source": "PubChem BioAssay AID1347076",
  "about": "(National Center for Advancing Translational Sciences (NCATS), 2019)",
  "note": "Values joined by “and” are separate entries in the source; they are usually repeats but may differ in a detail not shown here. Equal values may be shown once. Hit rate of the full screen: of about 400,000 compounds, about 13,000 (3.2%) were called active. This list was built around the results that the source calls inconclusive (neither active nor inactive); the mix of calls is not that of the screen. Calls follow the shape of the dose curve; as a rule, active = well fitted cell-killing curve with a large enough effect; inconclusive = small, poorly fitted or top-dose-only effect, or effect the other way; inactive = flat fitted curve, though single readings scatter. Potencies beside an inconclusive call are fits to weak or partial responses and may not hold up. % is scaled to controls: 0 for no effect and ±100 for the full control effect; potency is read from the fitted curve at half-maximal effect.",
  "data": [
    {"experiment": "qHTS assay for MDR1-selective chemotherapeutics: Primary screen using the drug-selected MDR subline cells KB-V1; also: nearly all actives have a fitted effect of over 60% in size", "settings": "KB-V1 MDR cells viability, CellTiter-Glo, 72 h; activity change, negative = cytotoxicity: at 46.1 µM (top of the series)", "in_short": "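Potencies derive from concentration-effect curves fitted to normalized luminescence (CellTiter-Glo) of KB-V1 cells treated for 72 h at 37 degrees C in phenol-red-free DMEM containing 10% FBS.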", "values": [
      {"smiles": "Cc1ccccc1C(=O)NC1(C(F)(F)F)C(=O)Nc2c1c(=O)[nH]c(=O)n2-c1ccc(F)cc1", "note": "(stereo unspecified)", "activity change, negative = cytotoxicity": "inactive: 0%"},
      {"smiles": "CCOc1ccc(S(=O)(=O)N2CCN(C(=O)c3oc4ccc(OC)cc4c3C)CC2)cc1", "Potency": "inconclusive: 20.6 µM [cytotoxic, single point]"},
      {"smiles": "CC(NC(=O)c1ccccc1)C(=O)NC1CCCc2ccccc21", "note": "(stereo unspecified)", "activity change, negative = cytotoxicity": "inactive: -27.7%"},
      {"smiles": "O=C(Cc1c(F)cccc1Cl)Nc1ncc([N+](=O)[O-])s1", "Potency": "inconclusive: 23.1 µM [cytotoxic, single point]"},
      {"smiles": "COC(=O)c1oc2ccccc2c1NC(=O)c1ccccc1O", "Potency": "inconclusive: 14.6 µM [cytotoxic, partial curve, poor fit]"},
      {"smiles": "CC(=O)Nc1ccc(/C=C2\\Sc3ccccc3C2=O)cc1", "activity change, negative = cytotoxicity": "inactive: 9.16%"},
      {"smiles": "Cc1ccc(C2CC(=O)c3cnc(N4CCc5ccccc5C4)nc3C2)cc1", "note": "(stereo unspecified)", "Potency": "active: 23.1 µM"},
      {"smiles": "Cc1ccc(/C=N/Nc2ncc(Cl)cc2Cl)s1", "Potency": "inconclusive: 23.1 µM [cytotoxic, single point]"},
      {"smiles": "CCN(Cc1ccccc1)Cc1c(O)ccc2c(=O)c(-c3ccc(Cl)cc3Cl)coc12", "Potency": "inconclusive: 29.1 µM [cytotoxic, single point]"},
      {"smiles": "COc1ccc2c(c1)c(C(=O)CN1CCc3ccccc3C1)c(C)n2C", "Potency": "inconclusive: 5.17 µM [cytotoxic, full curve]"},
      {"smiles": "CC1CN(S(=O)(=O)c2cccc(C(=O)OC(C)C(=O)NC3CCCCC3C)c2)CC(C)O1", "note": "(stereo unspecified)", "Potency": "inconclusive: 23.1 µM [cytotoxic, single point]"},
      {"smiles": "Cc1nc2ccc(NC(=S)N3CCCC3)cc2nc1C", "activity change, negative = cytotoxicity": "inactive: 6.26%"},
      {"smiles": "FC(F)(F)c1cccc(Cn2nnnc2-c2ccc(Cl)cc2)c1", "Potency": "active: 14.6 µM"},
      {"smiles": "CCOc1ccc2cc(/C=C/C(=O)c3ccco3)c(Cl)nc2c1", "Potency": "inconclusive: 18.4 µM [cytotoxic, single point]"},
      {"smiles": "Cn1ncc2c(O/N=C(\\N)c3ccc(C(F)(F)F)cc3)ncnc21", "Potency": "inconclusive: 29.1 µM [cytotoxic, single point]"},
      {"smiles": "Nc1ccc(N2CCN(c3ccc(F)cc3)CC2)cc1", "activity change, negative = cytotoxicity": "inactive: 6.89%"},
      {"smiles": "COc1ccccc1CNC(=O)CCCn1c(=O)c2ccccc2n(CC(=O)Nc2c(C)cc(C)cc2C)c1=O", "Potency": "inconclusive: 29.1 µM [rising, single point]"},
      {"smiles": "COc1ccc(NCC(=O)n2c(C)c(C)c3ccccc32)cc1", "Potency": "inconclusive: 14.6 µM [cytotoxic, partial curve]"},
      {"smiles": "CCOC(=O)c1sc(NC(=O)c2ccncc2)c(C#N)c1C", "Potency": "active: 2.59 µM"},
      {"smiles": "Cc1ccc(-c2nnc(SCC(=O)N/N=C/c3cccs3)n2-c2ccc(C)cc2)cc1", "Potency": "inconclusive: 20.6 µM [cytotoxic, partial curve, poor fit]"},
      {"smiles": "CN(C)CCOC(=O)COc1ccc(Cl)cc1", "activity change, negative = cytotoxicity": "inactive: 2.42%"},
      {"smiles": "CCOC(=O)c1sc2ccc(S(=O)(=O)N3CC(C)CC(C)C3)cc2c1N", "note": "(stereo unspecified)", "Potency": "inconclusive: 2.91 µM [cytotoxic, partial curve, poor fit]"},
      {"smiles": "CC1(C)CC(=O)CC(C)(C)N1OC(=O)c1ccccn1", "Potency": "inconclusive: 16.4 µM [rising, single point]"},
      {"smiles": "CN1CCc2c(sc3c2C(=O)NC(c2cn(Cc4ccccc4)c4ccccc24)N3)C1", "note": "(stereo unspecified)", "Potency": "active: 14.6 µM"},
      {"smiles": "CCC(C)(C(=O)NC1CCCCC1)N(CC1CCCO1)C(=O)CNC(=O)c1ccccc1", "note": "(stereo unspecified)", "Potency": "inconclusive: 2.06 µM [cytotoxic, partial curve, poor fit]"},
      {"smiles": "COc1ccc(OC)c2cc3ccccc3cc12", "activity change, negative = cytotoxicity": "inactive: -8.89%"},
      {"smiles": "CSc1nc(N)c(C(=O)NC2CCCCC2)s1", "activity change, negative = cytotoxicity": "inactive: -1.92%"},
      {"smiles": "Nc1ccc(C(=O)N2CCN(S(=O)(=O)c3ccc4c(c3)OCCO4)CC2)cc1[N+](=O)[O-]", "Potency": "inconclusive: 20.6 µM [cytotoxic, single point]"},
      {"smiles": "CCOC(=O)Cn1c(C)nc2c(C(=O)OCC)sc(C)c2c1=O", "Potency": "inconclusive: 23.1 µM [cytotoxic, single point]"},
      {"smiles": "CCOc1ccccc1/C=N/Nc1ccc(Cl)nn1", "activity change, negative = cytotoxicity": "inactive: 21.4%"},
      {"smiles": "CN(C)CCNC(=O)c1nn(C)c2c1CCc1ccccc1-2", "activity change, negative = cytotoxicity": "inactive: 21.9%"},
      {"smiles": "O=C(CCCc1ccccc1)NCCc1ccc(F)cc1", "activity change, negative = cytotoxicity": "inactive: 3.49%"},
      {"smiles": "O=C(NC(c1ccccc1)c1ccc2ccccc2n1)C1CCN(CCOc2ccc(Cl)cc2)CC1", "note": "(stereo unspecified)", "Potency": "inconclusive: 16.4 µM [cytotoxic, partial curve, poor fit]"},
      {"smiles": "O=C(Nc1cc(C(F)(F)F)ccc1Cl)c1cc(-c2ccc3c(c2)OCCO3)on1", "activity change, negative = cytotoxicity": "inactive: 1.32%"},
      {"smiles": "CCN(Cc1ccncc1)C(=O)c1ccc2c(c1)S(=O)(=O)c1ccccc1C2=O", "activity change, negative = cytotoxicity": "inactive: 6.74%"},
      {"smiles": "NC(=O)NC1(C(=O)O)CCCC1", "Potency": "inconclusive: 18.4 µM [rising, single point]"},
      {"smiles": "COc1ccc2c(CCNC(=O)c3ccc([N+](=O)[O-])cc3)c[nH]c2c1", "Potency": "inconclusive: 32.6 µM [cytotoxic, single point]"},
      {"smiles": "COC(=O)CCC(=O)Nc1cccc2c(NC(=O)CCC(=O)OC)cccc12", "Potency": "inconclusive: 16.4 µM [rising, single point]"},
      {"smiles": "CCc1ccc(C(=O)NN(C(=O)c2ccc(CC)cc2)C(C)(C)C)cc1", "Potency": "active: 7.31 µM"},
      {"smiles": "CN(Cc1ccccc1)C(=O)COC(=O)Cc1ccc(Cl)cc1", "Potency": "inconclusive: 2.59 µM [rising, partial curve, poor fit]"},
      {"smiles": "CN1CCC(OC(=O)COc2ccc(C(C)(C)C)cc2)CC1", "activity change, negative = cytotoxicity": "inactive: 0.496%"},
      {"smiles": "O=C(NNc1ccccn1)C(=O)NNS(=O)(=O)c1ccc(Cl)cc1", "Potency": "active: 18.4 µM"},
      {"smiles": "Cn1c(-c2ccc3c(c2)OCO3)cnc1NCc1ccccc1Cl", "Potency": "inconclusive: 16.4 µM [cytotoxic, single point]"},
      {"smiles": "CC1CCc2c(sc(NC(=O)C3c4ccccc4Oc4ccccc43)c2C(=O)OC(C)C)C1", "note": "(stereo unspecified)", "activity change, negative = cytotoxicity": "inactive: -6.75%"},
      {"smiles": "C=CCOc1c(Cl)cc(C2NC(=O)NC(C)=C2C(=O)OC)cc1Cl", "note": "(stereo unspecified)", "Potency": "inconclusive: 20.6 µM [cytotoxic, partial curve, poor fit]"},
      {"smiles": "Cc1ccccc1CNC(=O)Cc1cccs1", "Potency": "inconclusive: 29.1 µM [rising, single point]"},
      {"smiles": "CCSc1nc(=S)n(CC)c(C)c1C(C)=O", "Potency": "inconclusive: 29.1 µM [cytotoxic, single point]"},
      {"smiles": "COc1ccc(-n2c(C(C)n3nc(C)c([N+](=O)[O-])c3C)n[nH]c2=S)cc1", "note": "(stereo unspecified)", "activity change, negative = cytotoxicity": "inactive: 7.9%"},
      {"smiles": "CC(=O)c1ccc(OCc2cc(C(=O)N3CCCCCCC3)no2)cc1", "Potency": "inconclusive: 11.6 µM [cytotoxic, partial curve, poor fit]"},
      {"smiles": "CCCn1nc(NC(=O)c2ccco2)c2cc3ccccc3nc21", "Potency": "inconclusive: 32.6 µM [rising, single point]"},
      {"smiles": "COc1ccccc1-n1cnc2cc(NCc3cccs3)ccc21", "Potency": "inconclusive: 0.517 µM [cytotoxic, full curve, poor fit]"},
      {"smiles": "CCOC(=O)c1c(NC(=O)CSc2nnc(C)s2)sc2c1CCC(CC)C2", "note": "(stereo unspecified)", "Potency": "active: 5.8 µM"},
      {"smiles": "COc1ccc(C(CC(=O)O)NS(=O)(=O)c2ccc3c(c2)N(C(C)=O)CC(C)O3)cc1", "note": "(stereo unspecified)", "Potency": "inconclusive: 5.8 µM [rising, full curve, poor fit]"},
      {"smiles": "COc1ccc(/C=C/C(=O)C(C)(C)C)cc1OC", "activity change, negative = cytotoxicity": "inactive: 6.07%"},
      {"smiles": "CCOC(=O)c1oc2ccc(S(=O)(=O)n3nc(-c4ccc(Br)cc4)cc3N)cc2c1C", "Potency": "inconclusive: 18.4 µM [cytotoxic, partial curve, poor fit]"},
      {"smiles": "COc1ccccc1Nc1nn2c(=O)c3ccc(C(=O)N4CCCC(C)C4)cc3nc2s1", "note": "(stereo unspecified)", "Potency": "inconclusive: 32.6 µM [cytotoxic, single point] and inconclusive: 23.1 µM [cytotoxic, single point]"},
      {"smiles": "CCOc1ccc(/C=C/C(=O)c2c(O)c3ccccc3oc2=O)cc1", "Potency": "active: 11.6 µM"},
      {"smiles": "COc1ccccc1CNS(=O)(=O)c1ccc2c(c1)NC(=O)CC(=O)N2", "activity change, negative = cytotoxicity": "inactive: 20.4%"},
      {"smiles": "COc1ccc(CN2CCN(C(=O)CCC(=O)Nc3nnc(CC(C)C)s3)CC2)cc1F", "activity change, negative = cytotoxicity": "inactive: -1.3%"},
      {"smiles": "O=C(CN(c1cccc([N+](=O)[O-])c1)S(=O)(=O)c1ccccc1)NCc1cccnc1", "Potency": "inconclusive: 29.1 µM [rising, single point]"},
      {"smiles": "Cc1ccc(S(=O)(=O)NC2c3cccc4cccc(c34)C2Sc2nncn2C)cc1", "note": "(stereo unspecified)", "activity change, negative = cytotoxicity": "inactive: -25.1%"},
      {"smiles": "Cc1ccc(N=CC2=C(O)CC(c3ccc(Cl)cc3)CC2=O)cc1", "note": "(stereo unspecified)", "activity change, negative = cytotoxicity": "inactive: -15.3%"},
      {"smiles": "CCCCCCCCNC(=S)NCCN1CCCCC1", "Potency": "inconclusive: 16.4 µM [cytotoxic, partial curve]"},
      {"smiles": "COc1ccc(/C=N/NC(=O)c2ccn[nH]2)cc1CN1CCOCC1", "Potency": "inconclusive: 29.1 µM [rising, single point]"},
      {"smiles": "Cc1cc(NC(=O)c2cnn3c(C(F)(F)F)cc(-c4ccc(Br)cc4)nc23)no1", "Potency": "inconclusive: 9.2 µM [cytotoxic, partial curve, poor fit]"},
      {"smiles": "C/C(=C\\C(=O)C(F)(F)F)Nc1ccc(C(F)(F)F)cc1", "Potency": "inconclusive: 23.1 µM [rising, single point]"},
      {"smiles": "Cc1nc(SCC(=O)Nc2cc(C)on2)c2c(=O)n(C)c(=O)n(C)c2n1", "Potency": "inconclusive: 14.6 µM [rising, partial curve, poor fit]"},
      {"smiles": "COc1ccc(C2CC(=O)N(Cc3cccc(F)c3)c3ccccc3S2)cc1", "note": "(stereo unspecified)", "Potency": "inconclusive: 14.6 µM [cytotoxic, partial curve]"},
      {"smiles": "O=C(c1cc(-c2ccncc2)nc2ccc(Cl)cc12)N1CCN(Cc2ccc3c(c2)OCO3)CC1", "Potency": "inconclusive: 20.6 µM [cytotoxic, partial curve]"},
      {"smiles": "CN(C)c1ccnc(-n2cccc2/C=N/OCc2ccc(F)cc2Cl)c1C#N", "Potency": "inconclusive: 11.6 µM [cytotoxic, partial curve, poor fit]"},
      {"smiles": "CCOC(=O)NN1C(=O)c2ccccc2NC1c1ccccc1F", "note": "(stereo unspecified)", "Potency": "inconclusive: 29.1 µM [cytotoxic, single point]"}
    ]}
  ]
}
